Some entries share one result that the patent states for a list of compounds.
Assay: HLB value
Assay type: physicochemical

Row | Substance | HLB value
1 | Polyglyceryl-10 Dioleate | 10-11
2 | Polyglyceryl-10 Mono/Dioleate | 10-11

Reference: patent US10702475B2, “Liposome containing compositions and their use in personal care and food products” (priority 2017, dated 2020)
